Measurements reported in PubChem BioAssay AID2685 (National Center for Advancing Translational Sciences (NCATS), 2010).
This is one part of the list. Shown are side measurements of this screen, not its main read-out; they come without a call. The list favours compounds with an active or inconclusive main result. Words in brackets tell the shape of the fitted curve; partial curves, single points and poor fits give uncertain potencies.

Assay: qHTS Assay for Lipid Storage Modulators in Drosophila S3 Cells;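 for cell number change: cells counted by Cell Tracker Red CMTPX staining in the red channel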
Conditions: BODIPY lipid droplet fluorescence, 18-24 h; for cell number change: measured here: cell count max response, cells fed with added oleic acid
Method in brief: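 Laser-scanning cytometry quantifies lipid droplet accumulation (500–530 nm total intensity; droplet/cell object ratio) in oleic acid-fed (400 uM added) Drosophila S3 cells treated with a concentration series. 20 uM Triacsin C defined 100% inhibition.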

[1] = measured here: cell number channel AC50, cells fed with added oleic acid
[2] = measured here: lipid fluorescence (Fed channel) AC50, cells fed with added oleic acid

Compound: COc1ccc(CNC(=O)c2sccc2C)cc1
- cell number change: 21.6%
- AC50 [1]: 0.291 µM [rising, full curve, poor fit]
- AC50 [2]: 18.4 µM [rising, partial curve]

Compound: CCOC(=O)c1c(C)oc(/N=C/c2ccccc2O)c1C#N
- cell number change: -10.1%
- AC50 [2]: 6.51 µM [falling, single point]

Compound: Cn1c2c(c(=O)n(C)c1=O)C(NC(=O)C(C)(C)C)(C(F)(F)F)C(=O)N2 (stereo not drawn)
- cell number change: 14.2%
- AC50 [2]: 29.1 µM [falling, single point]

Compound: CC1(C)CC(=O)C2=C(C1)N(c1ccccc1)C(=O)CC2c1ccsc1 (stereo not drawn)
- cell number change: 19.9%
- AC50 [2]: 20.6 µM [rising, single point]

Compound: O=C(CC1NCCNC1=O)Nc1ccc(Oc2ccccc2)cc1 (stereo not drawn)
- AC50 [1]: 2.06 µM [rising, partial curve]
- AC50 [2]: 6.51 µM [rising, single point]

Compound: COc1cc(S(=O)(=O)N2CCN(c3ccccc3)CC2)ccc1Cl
- cell number change: 8.03%

Compound: Cc1ccccc1Cn1c(=N)n(CC(O)c2ccco2)c2ccccc21 (stereo not drawn)
- cell number change: 49.8%
- AC50 [1]: 20.6 µM [rising, single point]

Compound: O=C(Nc1nc(-c2ccc(Br)cc2)cs1)c1cccnc1
- cell number change: -0.176%
- AC50 [2]: 29.1 µM [falling, partial curve, poor fit]

Compound: CN(Cc1ccc(F)cc1)C(=O)C(c1ccccc1)c1ccccc1
- cell number change: 43.7%
- AC50 [1]: 29.1 µM [rising, single point]

Compound: CC(Oc1ccc(C#N)cc1)C(=O)c1ccc(F)c(F)c1 (stereo not drawn)
- AC50 [2]: 6.51 µM [falling, single point]

Compound: CC(C)(C)c1ccc(C(=O)NCC(=O)OCC(=O)Nc2nc(-c3ccc(F)cc3)cs2)cc1
- cell number change: -48.2%
- AC50 [1]: 1.16 µM [falling, full curve]
- AC50 [2]: 0.00517 µM [falling, full curve, poor fit]

Compound: CC1CN(C2CCN(S(=O)(=O)c3ccccc3)CC2)CC(C)O1 (stereo not drawn)
- cell number change: -24.1%
- AC50 [2]: 0.82 µM [falling, full curve, poor fit]

Compound: CCCN(C(=O)CSc1nc2ccccc2n1CC)C1CCS(=O)(=O)C1 (stereo not drawn)
- cell number change: 17.3%

Compound: Cc1ccc(-n2ncc(C(=O)NC3CC3)c2C2CCN(C(=O)OC(C)(C)C)CC2)c(C)c1
- cell number change: 3.79%
- AC50 [2]: 0.517 µM [falling, full curve]

Compound: COc1ccc(NC(=O)/C(Cl)=C(/Cl)S(=O)Cc2ccc(C)cc2)cn1 (stereo not drawn)
- cell number change: -172%
- AC50 [1]: 3.66 µM [falling, full curve]

Compound: CCOCC(=O)Nc1ccc(Br)c(C)c1
- cell number change: -18.4%
- AC50 [1]: 2.31 µM [falling, single point]
- AC50 [2]: 3.66 µM [falling, partial curve, poor fit]

Compound: CC(C)(C)NC(=O)CN(C(=O)c1snc(C(=O)NC2CCCCC2)c1N)c1ccc(F)cc1
- cell number change: -33.3%
- AC50 [1]: 29.1 µM [falling, single point]
- AC50 [2]: 0.206 µM [rising, single point]

Compound: CCc1nc2c(sc3nc4c(cc32)COC(C)(C)C4)c(=O)n1CCN(CC)CC
- cell number change: 5.49%

Compound: Cc1nc(SCC(C)C)[nH]c(=O)c1Cc1ccccc1
- cell number change: -22.4%
- AC50 [2]: 0.82 µM [falling, full curve, poor fit]

Compound: COc1ccc(-c2nnc(SCc3nnc(-c4ccccc4)o3)n2-c2ccccc2)cc1
- cell number change: 4.75%
- AC50 [2]: 0.116 µM [rising, full curve]

Compound: CNC(=S)NNC(=O)c1sccc1OCc1cccc(C(F)(F)F)c1
- cell number change: -10.1%

Compound: COc1cccc(C(=O)c2ncc(C(F)(F)F)cc2Cl)c1
- cell number change: 10.9%

Compound: CCN1CCN(S(=O)(=O)c2ccc(OC)c(Br)c2)CC1
- AC50 [1]: 0.082 µM [falling, partial curve, poor fit]

Compound: Cc1nnsc1NC(=O)OCc1ccc(C(C)(C)C)cc1
- cell number change: -12.6%
- AC50 [2]: 29.1 µM [falling, single point]

Compound: COCCN(C(=O)COC(=O)CC(C)c1ccccc1)c1c(N)n(Cc2ccccc2)c(=O)[nH]c1=O (stereo not drawn)
- cell number change: -10.4%

Compound: Cn1c(SCC(=O)NCC2CCCO2)ncc(C(=O)Nc2ccc(F)cc2)c1=O (stereo not drawn)
- cell number change: 7.3%
- AC50 [2]: 5.17 µM [falling, single point]

Compound: O=C(NC1CCCCC1)NC1CCN(CC(=O)N2CCOCC2)CC1
- cell number change: 8.36%
- AC50 [2]: 29.1 µM [falling, single point]

Compound: Cc1ccc(S(=O)(=O)/N=C(\CSC(N)=O)Nc2ccccc2)cc1
- cell number change: -52.2%
- AC50 [1]: 0.146 µM [falling, full curve]
- AC50 [2]: 0.92 µM [falling, full curve]

Compound: CC(C)Oc1ccc(C2NC(=O)NC2=O)cc1 (stereo not drawn)
- cell number change: 1.29%

Compound: O=C(NNC(=O)c1cccs1)c1ccc(Cl)c(Cl)c1
- cell number change: 22.3%
- AC50 [2]: 2.59 µM [rising, single point]

Compound: COc1cccc(C(=O)n2cnnc2N)c1OC
- AC50 [2]: 6.51 µM [falling, single point]

Compound: O=C(CCS(=O)(=O)c1ccccc1)NCCS(=O)(=O)c1ccccc1
- AC50 [1]: 1.64 µM [falling, single point]
- AC50 [2]: 0.58 µM [falling, single point]

Compound: Cc1ccc(C(O)CCc2ccc(N)cc2)cc1 (stereo not drawn)
- cell number change: 15.3%
- AC50 [2]: 0.731 µM [rising, full curve, poor fit]

Compound: C/C(=N/Oc1nc(C)cc(C)n1)c1ccc(F)cc1
- cell number change: 13.9%

Compound: CC(=O)N(CCS(=O)(=O)c1ccc(Cl)cc1)Cc1cccs1
- AC50 [1]: 0.0651 µM [falling, full curve, poor fit]
- AC50 [2]: 0.058 µM [falling, full curve, poor fit]

Compound: COc1ccc(CN2CCC(Cc3ccccc3)CC2)cc1OC
- cell number change: 4.05%
- AC50 [2]: 1.84 µM [falling, single point]

Compound: O=C(O)C1CC=CCC1C(=O)NNc1c(Cl)cc(Cl)cc1Cl (stereo not drawn)
- cell number change: -19.4%
- AC50 [1]: 0.082 µM [falling, full curve, poor fit]
- AC50 [2]: 0.146 µM [falling, full curve, poor fit]

Compound: COc1ccc(/C=N/NC(=O)c2ccc(NC(C)=O)cc2)cc1COc1ccc(F)cc1F
- cell number change: -60.9%
- AC50 [1]: 5.8 µM [falling, full curve]
- AC50 [2]: 5.17 µM [falling, full curve]

Compound: O=C(COC(=O)CNC(=O)c1ccccc1)NCCc1ccccc1
- cell number change: -34.5%
- AC50 [1]: 32.6 µM [falling, single point]

Compound: CCOC(=O)/C=C1\Nc2ccccc2OC1=O
- cell number change: -1.5%
- AC50 [2]: 0.58 µM [rising, single point]

Compound: O=C(COc1ccc(Cl)cc1Cl)N1CCN(C(=O)c2ccco2)CC1
- cell number change: 7.89%

Compound: Cc1ccc(NC(=O)C2CC(=O)N(C(C)C)C2)cc1C (stereo not drawn)
- cell number change: 23.7%
- AC50 [2]: 29.1 µM [rising, single point]

Compound: CN(CC1CCN(CCc2cccc(C(F)(F)F)c2)CC1)C(=O)c1ccc(F)cc1
- cell number change: -29.9%
- AC50 [2]: 1.84 µM [falling, full curve]

Compound: O=C(c1cccc(-c2ccccc2F)c1)N1CC[C@@H](N2CCC(O)CC2)[C@H](O)C1
- cell number change: -11.4%

Compound: O=C(Nc1ccc(N2CCOCC2)cc1)C1CCCCC1
- cell number change: 15.7%
- AC50 [1]: 0.58 µM [rising, full curve, poor fit]
- AC50 [2]: 4.11 µM [falling, full curve, poor fit]

Compound: CN(C)S(=O)(=O)c1ccc(N2CCCC2)c(C(=O)NNC(=O)c2ccc(Br)cc2)c1
- cell number change: 131%
- AC50 [1]: 29.1 µM [rising, single point]
- AC50 [2]: 29.1 µM [rising, single point]

Compound: Cc1cccc(Nc2nc3c(S(=O)(=O)c4ccccc4)nnn3c3ccccc23)c1
- cell number change: -1.33%

Compound: S=C(NCc1ccncc1)Nc1cc(Cl)cc(Cl)c1
- cell number change: -6.07%
- AC50 [2]: 29.1 µM [falling, single point]

Compound: O=C(CSc1ccc2nnc(-c3ccncc3)n2n1)Nc1ccccc1F
- cell number change: 3.9%
- AC50 [2]: 3.66 µM [falling, full curve]

Compound: O=C(Nc1ccnc(-c2ccncc2)n1)c1ccc(F)cc1
- cell number change: 18.2%
- AC50 [1]: 4.61 µM [rising, partial curve, poor fit]

Compound: Cc1c(C)n(C)c2ccc(C(=O)NCCCN3CCN(C)CC3)cc12
- cell number change: 9.17%

Compound: COc1ccc(-c2nn(-c3ccccc3)cc2C(N)=O)cc1OC
- cell number change: 3.81%

Compound: O=C(c1ccccc1)N1CCN(C(=O)c2ccc3c(c2)OCO3)CC1
- cell number change: 10.1%
- AC50 [2]: 0.517 µM [rising, full curve]

Compound: O=C(Cn1cccc1C(=O)c1ccccc1)NCc1ccc2c(c1)OCO2
- cell number change: 26.1%
- AC50 [1]: 3.26 µM [rising, partial curve]
- AC50 [2]: 0.651 µM [rising, full curve]

Compound: CCCC(=O)N1CCN(c2ccc(NC(=O)c3cccs3)cc2Cl)CC1
- cell number change: -31.7%
- AC50 [1]: 5.8 µM [falling, partial curve]
- AC50 [2]: 11.6 µM [falling, partial curve]

Compound: CCCn1nc(C(=O)OCc2nc(N)nc(Nc3ccccc3C)n2)c2ccccc2c1=O
- cell number change: 4.84%
- AC50 [2]: 23.1 µM [rising, single point]

Compound: Cc1ccc(-c2noc(CCC(=O)NCc3ccc4c(c3)OCO4)n2)cc1
- cell number change: 20.8%
- AC50 [2]: 5.17 µM [rising, full curve]

Compound: Cc1ccc(NC(=O)c2cc(N3C(=O)C=CC3=O)ccc2Cl)cc1C
- cell number change: -58%
- AC50 [1]: 13 µM [falling, partial curve]
- AC50 [2]: 13 µM [falling, partial curve]

Compound: CC(=O)c1ccc(NC(=O)CC(C)S(=O)(=O)c2ccc3c(c2)CCN3C(C)=O)cc1 (stereo not drawn)
- cell number change: 6.6%

Compound: O=C(NC(=S)N1CCCCCC1)c1cccc([N+](=O)[O-])c1
- AC50 [2]: 7.31 µM [falling, partial curve, poor fit]

Compound: O=C(O)c1cc(NC(=O)c2ccco2)cc(NC(=O)c2ccco2)c1
- cell number change: 7.14%
- AC50 [2]: 6.51 µM [rising, single point]

Compound: CCCCCn1c(=O)[nH]c2cc(C(=O)NCCCN3CCCCC3)ccc2c1=O
- cell number change: -28.8%
- AC50 [2]: 29.1 µM [falling, single point]
